For 107 sequences, z-score results are on record in PubChem BioAssay AID1508600 (Functional Genomics Laboratory (NCATS/FGL), 2020).

Out of some 53,000 sequences screened, about 3,700 (7%) were called active.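 How the source made its calls: active means gene knockdowns whose robust z-score for IL-1 alpha signal is at least 2 or at most -2, so actives lie on both sides; inactive means the rest.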 Some of the results follow.

The assay in a line: Components of the Cytosolic LPS Sensing Pathway: Gene Identification via Genome-wide siRNA Screen.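 Further: robust z of the log signal after scaling to non-targeting control siRNA wells of the plate.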 Conditions: RAW264.7 macrophages, IL-1a HTRF, actives lie on both sides, screened at 100 nM (by protocol), cells primed 5 h with Pam3CSK4 first. Put shortly:
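RAW264.7 mouse macrophages reverse-transfected with single siRNAs (100 nM final) for 48h, primed with Pam3CSK4 for 5 hours, then transfected with LipidA for 24 hour. Supernatant IL-1a read by HTRF; values normalized to negative-control median, log-transformed robust z-scores.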
Background: In TR-FRET formats the signal depends on donor and acceptor labels being close together.
With GCAGAUGGAAUUCACCGAATT against Vps13a, the z-score is inactive: 1.79.

Regarding GGAAAUCCUGCCAUCAAACTT against Kti12, the z-score is inactive: 0.0153. As to GGAUGUCAAGGUGGCAUUATT against Olfr147, the z-score was inactive: -0.534. Turning to GGUCAACCUUUAAAAAACATT against Kifc2, the z-score is inactive: -1.35.

Take GGAUUGUGCAUUUCAUUGUTT against Mtmr6: the z-score is inactive: 0.678. For the sequence GGACAAAAUAAUGCUUUCUTT against Cnnm1, the z-score was inactive: 0.0436. For the sequence GGUAUCUGUCCAUCCAAAUTT against Tcam1, the z-score is inactive: 1.28. Take GGGAACAAGUUGAGCUACUTT against Ebp: the z-score was inactive: -0.0574.

Turning to GGACGUGUUUGGGAUUGUUTT against Csad, the z-score was inactive: -0.765. The figure for CGAAUAUCAUCUCACACUCTT against Olfr875 is inactive: 1.42; for GGGAGGAAGAAGAAGGUCATT against Atp1b4 it is inactive: -0.193.

Regarding GCGGCCAUUACCAAAAUUGTT against Olfr520, the z-score was inactive: 1. The figure for GGUAGUUGUCCUCAUGUGCTT against Scn2b is inactive: 0.53; for GGAUGUUUUAUUUCCGUACTT against Enoph1 it is inactive: -1.12. The value for GCCUGGUAGUUAGUCAGAATT against Klf11 was active: 2.4; that for GGUUCAUCAAGAAGUUAGATT against Pip5k1c was inactive: -0.407; that for GGACCGAUUAAGGAAGGAATT against Ppp1r1a was active: 2.49. Consider CGCCGGAAGUUCUACCACUTT against Tmem205, for which the z-score is inactive: 0.223. On to GGACAUUAAGAGUGGAAAGTT against Nucb1, for which the z-score was inactive: 0.777.

Regarding GGGUCAAAGCUCAACGAAATT against Il2rb, the z-score was inactive: 0.806. Regarding GGUUGGAAAGCAUUUUUUATT against Commd2, the z-score was inactive: 1.13.

Turning to GGUUGGUAGGCUUUGGUGUTT against Notum, the z-score was inactive: 0.657. With GGUCCUUGCCAAAACAAUUTT against Crb1, the z-score is inactive: -1.13.

Consider GGAUUCUCUACCUUACCAUTT against Mfsd8, for which the z-score is inactive: 0.361. For GGCUGUGUAAGAUUUGUUUTT against Hmgb1, the z-score is inactive: -0.0689. The figure for GGUCAAGAGGAGGGUACCUTT against Foxred2 is inactive: 0.313.

Consider GGCUUCAGCUAUUGGGCAATT against Vsig1, for which the z-score is active: 2.19. CCUUGAAAAGUCUAAACGUTT against Tmod2: the z-score is inactive: 0.375. As to GGAUCAGACUGUACGAGAGTT against Crygd, the z-score is inactive: -1.11.

Turning to GGAACUCUUCUAUUACAGATT against Sfxn4, the z-score is inactive: 0.62. For the sequence GCAAUUUAUGCCCUGCCUUTT against Fastk, the z-score is inactive: -0.165. On to GGGUUUUAAUUAUACUGCGTT against Ror2, for which the z-score is inactive: 0.868. Turning to GCUAACAUACAUCAUCAAATT against Stx5a, the z-score is inactive: 0.696. Turning to GGACAAGCACCAGGAUUUUTT against Cyct, the z-score is inactive: 0.676. In the case of GGAAAGCAUUGUUUUUUUGTT against Rtkn2, the z-score was inactive: -0.649.

On to GCUGGAGAACCUCCCUAAATT against Mrps33, for which the z-score is inactive: 1.14. In the case of GGACCACCUAUGGACUACATT against Rbm6, the z-score is inactive: 1.09.

With GGUUAAAAGAGGUGAUUAGTT against Mtfp1, the z-score was inactive: 1.9.

For the sequence GGAGAAGAAGGGAAAGCAUTT against Tub, the z-score is inactive: -1.4. Regarding GCCAGGUAUUGGAUGCCAUTT against Stkld1, the z-score was inactive: -1.55.

GCCCAUUCUGUAGGUGCAUTT against Nrg4: the z-score was inactive: 0.677. Consider GCCGAGUUUACUUGUUUGATT against Exd1, for which the z-score is inactive: 0.554. GGACCAAGGAUGUUCGCUUTT against Cnr2: the z-score was inactive: 1.14. The figure for GGUGAUAUUCCUAUCUAAATT against Mbnl1 is inactive: 1.84; for GGCAAAGAAAGGCAAGCCUTT against Cyp3a11 it is inactive: 1.86; for CUAGAAGUGAUGGCUUUCATT against Olfr814 it is inactive: -0.316.

GGAGUAUCGUAAUGCGGACTT against C4b: the z-score is inactive: 0.598. Regarding GGAAGGAAGAAGACAAUAATT against Nudt16l1, the z-score is inactive: -0.438. The value for GGAUCUUGUAGAGCAAAAUTT against Rnmt was inactive: 0.564; that for GCAGGCAUCGUGUUUACCATT against Cdh20 was inactive: 1.86; that for GGUUGAGUGUCUUUUCUGCTT against Krt34 was inactive: -1.02. As to GUACAAGCUCAAGUGCUCGTT against Casz1, the z-score is inactive: -0.463. As to CGGUGAUGCGAUAUAAUGUTT against Serpine2, the z-score is inactive: -0.0324. GGACAUACCAGAAGAAAUUTT against Sult1d1: the z-score was inactive: -0.463. As to AAUGUUGAAAACAAGAGCCTT against Vmn1r148, the z-score is inactive: -1.51.

CGAUCCUCUUUGUUUAUCUTT against Olfr998: the z-score was inactive: -1.92. For the sequence GGAAUUUCUGUGCAUUAAATT against Astn2, the z-score is inactive: -1.51. Regarding GGUUAUGUACCAGCAAAGUTT against Epdr1, the z-score is inactive: 0.821. For the sequence GCAAGUGAAUACCAGAUCCTT against Pcdhac1, the z-score is inactive: -0.0652. The value for “GGUGAACUAGAAAUCAGAUTT against 9330154K18Rik” was inactive: 0.699; that for CCUUCGAAGUGCUAUGGGATT against Apbb1 was inactive: 0.858; that for GCAAGGGAAUGUGUGCCUUTT against Olfr16 was inactive: 0.461. Consider GGCCAUGAAUGGAAUGUACTT against Slco1a1, for which the z-score was inactive: -1.56.

As for GGCAUGAGAUUCUCAAUCCTT against Ppp4r4, the z-score was inactive: -1.82. GCCUAAGAGUUUCAAUAAGTT against Tgtp1: the z-score was inactive: -1.21. With GGAGAAAUCAGAAUUUUUGTT against Dbf4, the z-score was inactive: -0.0526. For the sequence GGGCGUGUUAUCAAUGUCUTT against Dhrs9, the z-score was inactive: -0.314. The value for UCUUUGUGGUAGCCAUCCUTT against Olfr129 was inactive: 1.09; that for CCUUUAUGAAUGAACAGGGTT against Cnot7 was inactive: -0.266.

GGUGUAUGCAGACAAGUUATT against Ctdspl2: the z-score was inactive: -0.158.

CGAAUCCUUAGUUGAAGAATT against Fastkd1: the z-score was inactive: 1.18. As for GGAACAAUUGAUAAGACGATT against Guf1, the z-score was inactive: 0.237. Turning to GGUACUGCAACUACAUGAUTT against Rnase12, the z-score is inactive: -0.607. GGCUCAAGGAACAUGAGGCTT against Gtsf2: the z-score is inactive: -0.0452.

For the sequence GGACAUUAGAGAAUCAUUATT against Gm4922, the z-score is inactive: -0.183. The value for CCUUGAGUGAAAAAGGUUUTT against Top2b was inactive: 1.19. The value for GGAAUUUUCUUCAUUUGGATT against Pabpc5 was inactive: -0.878; that for GGUUGUGGUAGUCCGCUAUTT against Mrpl2 was inactive: 0.787. In the case of GGAUGAUACAUGUUUGAAUTT against Vmn1r51, the z-score is inactive: -0.121. Consider CCCUAUCCUGUUCAUCUCUTT against Gpr50, for which the z-score is active: 2.83. Regarding GACUUUUCAGGCAUACCUATT against Ypel2, the z-score is inactive: -1.19. The value for GGAAGACCGUACUAUGUUUTT against Meg3 was inactive: 0.419; that for GGCCAUUGACUUUGUGGAUTT against Gatd1 was inactive: 0.317; that for CCAAGAUCUAUGGAGGACGTT against Rps19 was inactive: -0.284. Consider GCCUUCGUCUCCAAGUAUATT against Plagl1, for which the z-score was inactive: -0.305. On to GGCGAAGCACUCGAAUUUCTT against Slc23a2, for which the z-score is inactive: 0.0273.

Consider GGACUCAUAUUCGUAUGUATT against Zfr, for which the z-score is inactive: -1.23. On to CCGAGUAAUUAACUAUAAGTT against Eqtn, for which the z-score was inactive: 0.745. For the sequence GGGUUCCUAAAUAGAAAAUTT against Nanos1, the z-score is inactive: 0.047. The figure for GGUCACCCAUUUCUUUUGUTT against Olfr361 is inactive: 0.59; for GGAUGGUGUAGCACAUUUCTT against Tulp2 it is inactive: 0.422. GGCGAAAAUAAGUUGAAAATT against Bhlhe22: the z-score is inactive: 0.796. The value for CGGCAGGAUGAAUGAGAUCTT against Bccip was inactive: -1.4. Take GGAGAUAACGUACAUCAACTT against Sfrp2: the z-score is inactive: 1.7. On to CGAUCCAGUAUUCGAAGCATT against Sqstm1, for which the z-score is inactive: 0.263. The figure for GCACACCAGCGACAUUCUATT against Aipl1 is inactive: 1.21; for GGGAGAAGAAAAGAAGACATT against Cldn23 it is inactive: 0.554.

As for GGCUUUUAGCUACCUUGUGTT against AW209491, the z-score is inactive: -0.704. CGUGCCACUUUUACCGUCCTT against Zdhhc8: the z-score is active: -2.43. For the sequence GGAGAUCUAUAAGGAUAGATT against Flot1, the z-score was inactive: -0.0586. Regarding GGUGACGCAGAGGAUCUAUTT against Pmf1, the z-score was inactive: 0.911. The figure for GGAAUUUGACAAACUCAGCTT against Rcn3 is inactive: 0.986; for GGAGUUACGCCGAAACAGGTT against Wfdc15a it is inactive: 0.0102.

With GGGCCACUGUCGAUAUGAATT against Prr3, the z-score is inactive: -0.459. Take GCCUGUUAGCGGUUGUUGUTT against Syt10: the z-score was inactive: -0.542. On to GGGAGGGUGUGCAAAAGUUTT against Arl4d, for which the z-score is inactive: 1.26. Regarding GGAUUUGGAUUUGUAAGCUTT against Pabpc1, the z-score is inactive: 1.99.
